{"sequences": {"note": "Amino acid sequences for entries named in this document (tags omitted).", "UniProt Q0JBA9, entry or part of it": "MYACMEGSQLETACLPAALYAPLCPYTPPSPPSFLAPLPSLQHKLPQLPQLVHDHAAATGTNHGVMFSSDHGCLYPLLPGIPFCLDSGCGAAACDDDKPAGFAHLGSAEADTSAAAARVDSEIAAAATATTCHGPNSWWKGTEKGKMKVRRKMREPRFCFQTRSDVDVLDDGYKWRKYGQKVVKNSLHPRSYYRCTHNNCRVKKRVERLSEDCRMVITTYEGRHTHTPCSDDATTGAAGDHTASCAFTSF"}, "source": "paper PMC7819943", "about": "“Rice protein-binding microarrays: a tool to detect cis-acting elements near promoter regions in rice”", "note": "Some of the results follow.", "data": [{"target": "OsWRKY34 (Oryza sativa, UniProt Q0JBA9 1-250)", "experiment": "protein-binding microarray (RPBM); PBS, 2% BSA, 51.3 ng/ul salmon testes DNA, 50 uM zinc acetate, 200 nM TF, 25 C, 1 h; high values mean tight binding", "details": "protein: recombinant; tags: N-terminal polyhistidine and DsRed monomer fusion (pET32a); label: CyDye5-dUTP incorporated in the synthesized complementary strand; 3' TTTTT single-stranded linker to array surface; dsDNA, one strand shown", "method_in_brief": "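The binding signal is fluorescence intensity per feature, in arbitrary units, read on an Axon 4000B scanner. Polyhistidine- and DsRed-tagged transcription factors (N-terminal fusions) from E. coli BL21-CodonPlus were purified on Ni–NTA and applied at 200 nM for 1 h at 25 °C to a double-stranded, BSA-blocked custom Agilent array in buffer with 50 µM zinc acetate.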", "values": [{"sequence": "TCTTCTGAGTTCTTGTGTTTTCATACGTGCCAATCAAATGCGGAGTCACCTAGTGCAG", "binding signal": "8310 fluorescence intensity (a.u.)"}, {"sequence": "AAAATCAACCCAGCCCAGTGTCACCGCGTACGTCACATTTCGGAGTCACCTAGTGCAG", "binding signal": "8700 fluorescence intensity (a.u.)"}, {"sequence": "GTGAGGTGGGGTGGTGTGGCTTCTGCTGCTGCTGCTACTGCGGAGTCACCTAGTGCAG", "binding signal": "15100 fluorescence intensity (a.u.)"}, {"sequence": "ACTTCCAACTTTTCCGTCACATCGTTCCAATTTCAACCAACGGAGTCACCTAGTGCAG", "binding signal": "8500 fluorescence intensity (a.u.)"}, {"sequence": "ATGTGGTTCAACTGAATTTTCCATGCCCTATGTTAAGTCTCGGAGTCACCTAGTGCAG", "binding signal": "8970 fluorescence intensity (a.u.)"}, {"sequence": "TAATGGGATGGGTGAAAAGTTATTGTTTTTGGTAGGCCTTCGGAGTCACCTAGTGCAG", "binding signal": "9640 fluorescence intensity (a.u.)"}, {"sequence": "ACACATCACCCTTTAAAACTTAACCATTGGATCATTTTTGCGGAGTCACCTAGTGCAG", "binding signal": "9380 fluorescence intensity (a.u.)"}, {"sequence": "AGATGGTGGGAGTAACATGTCTTTTTTTTTTTACATTGGACGGAGTCACCTAGTGCAG", "binding signal": "9970 fluorescence intensity (a.u.)"}, {"sequence": "GAGTAGTAGGACCTAGATCTATAAATACCAGCTTTCCAACCGGAGTCACCTAGTGCAG", "binding signal": "8360 fluorescence intensity (a.u.)"}, {"sequence": "ATAGTTAAAAGCACCGCCAATCTGTCGTCGCCGCGCCGGCCGGAGTCACCTAGTGCAG", "binding signal": "8840 fluorescence intensity (a.u.)"}, {"sequence": "AAGTCTTCTTTCATCTCACCACGTCACTTTTGGTCCATAGCGGAGTCACCTAGTGCAG", "binding signal": "8500 fluorescence intensity (a.u.)"}, {"sequence": "CAACCACCACCGCCTGAGCCGCCGCCGCCGCCGCCCGAGGCGGAGTCACCTAGTGCAG", "binding signal": "12900 fluorescence intensity (a.u.)"}, {"sequence": "ATTCTAGGGACAATTGCTTATTTAACTATGTTTCAAACCACGGAGTCACCTAGTGCAG", "binding signal": "8350 fluorescence intensity (a.u.)"}, {"sequence": "GAATTGTTGACCACGTGTTTCTGTTTGGACTCCTTTTTTTCGGAGTCACCTAGTGCAG", "binding signal": "16400 fluorescence intensity (a.u.)"}, {"sequence": "CGGCTTCTCCCCTCCGCCGCCTCCTCTCCTAGCCTTCCCCCGGAGTCACCTAGTGCAG", "binding signal": "10700 fluorescence intensity (a.u.)"}, {"sequence": "TATATATATACACACCCGCTTGTTCATTTGTTCTTCCTGCCGGAGTCACCTAGTGCAG", "binding signal": "9470 fluorescence intensity (a.u.)"}, {"sequence": "TTCGTCCATCCCACACAGTTAAATACACTGTTCATCCTATCGGAGTCACCTAGTGCAG", "binding signal": "11000 fluorescence intensity (a.u.)"}, {"sequence": "AACTATTTCTCATTTTATCTTCTCCAAATACAAATATCCCCGGAGTCACCTAGTGCAG", "binding signal": "8250 fluorescence intensity (a.u.)"}, {"sequence": "CTAACATGTTATATGCTCAATTGGTTGGTCGAGGTTGATCCGGAGTCACCTAGTGCAG", "binding signal": "8390 fluorescence intensity (a.u.)"}, {"sequence": "GATTGAGTGTGCCCGTGTGAGATAGAATCTTTTTGCCCTTCGGAGTCACCTAGTGCAG", "binding signal": "8930 fluorescence intensity (a.u.)"}, {"sequence": "TGTTTCTCAGTTGGGTATCTATGCAATCCAATTACCAATCCGGAGTCACCTAGTGCAG", "binding signal": "9300 fluorescence intensity (a.u.)"}, {"sequence": "GGAAACTGGTGGGGTGGGAGTCGCCACGACACGCGGCGACCGGAGTCACCTAGTGCAG", "binding signal": "8380 fluorescence intensity (a.u.)"}, {"sequence": "TCCATCAGTCATTCCAAGGTCAACCCAAACCCTACCTGGTCGGAGTCACCTAGTGCAG", "binding signal": "8580 fluorescence intensity (a.u.)"}, {"sequence": "ATTATTGTAAGGCCCTGTTTCTTTCAGCTTTGGATTATTACGGAGTCACCTAGTGCAG", "binding signal": "9490 fluorescence intensity (a.u.)"}, {"sequence": "GCCCCGAGCGGGCCGAGCTCCCATCGTCTCATCGCCCCAACGGAGTCACCTAGTGCAG", "binding signal": "11600 fluorescence intensity (a.u.)"}, {"sequence": "GTTGTGTTCCCTTGCCGCCGTTTACCAGTATGTGACCAAACGGAGTCACCTAGTGCAG", "binding signal": "12500 fluorescence intensity (a.u.)"}, {"sequence": "CGGTCAATTCGGTTTTTTGGCTCGGTTAACCGAATTGACACGGAGTCACCTAGTGCAG", "binding signal": "8520 fluorescence intensity (a.u.)"}, {"sequence": "TCCACACACAAGCACACATCCACACAACGGCAATTAATCACGGAGTCACCTAGTGCAG", "binding signal": "8930 fluorescence intensity (a.u.)"}, {"sequence": "ACCACCATCCATGATCCATCCACAGATCCACTAGTACACTCGGAGTCACCTAGTGCAG", "binding signal": "9440 fluorescence intensity (a.u.)"}, {"sequence": "TCGATCGGTCTATATATTGGCGGGGTGGACCGTGGGCCGACGGAGTCACCTAGTGCAG", "binding signal": "9410 fluorescence intensity (a.u.)"}, {"sequence": "ACGTGATCCTGTTGTGTCTTAATTACTCGACGCTTTGATCCGGAGTCACCTAGTGCAG", "binding signal": "10100 fluorescence intensity (a.u.)"}, {"sequence": "AGCGGTTTTACACATTTTTCTTACAATATTTGTTTGTTTCCGGAGTCACCTAGTGCAG", "binding signal": "10400 fluorescence intensity (a.u.)"}, {"sequence": "TTTGCTTTTGGTCGGTGTTTTGATTTTTCTGCACATACAACGGAGTCACCTAGTGCAG", "binding signal": "8680 fluorescence intensity (a.u.)"}, {"sequence": "ATCTTGCTGATTTTGTTGTTGATTTGAATGCTATGTAAACCGGAGTCACCTAGTGCAG", "binding signal": "9140 fluorescence intensity (a.u.)"}, {"sequence": "CATCTACATGGATATGCATCTCTATATATACGAACTTACCCGGAGTCACCTAGTGCAG", "binding signal": "8070 fluorescence intensity (a.u.)"}, {"sequence": "CTGCCTAGACACAGCTCTACAACTCTAGTACATTTTGTGACGGAGTCACCTAGTGCAG", "binding signal": "8190 fluorescence intensity (a.u.)"}, {"sequence": "GGAGAGGTGTATTTATATGTTTTTTTGTAGCGGTTAGATACGGAGTCACCTAGTGCAG", "binding signal": "8930 fluorescence intensity (a.u.)"}, {"sequence": "TCCTCGTCTACGACGCGTTCCTCCTCTGGGCGCGCGCTGTCGGAGTCACCTAGTGCAG", "binding signal": "8650 fluorescence intensity (a.u.)"}, {"sequence": "GAGCACATCTTCAGGTAGCAGGTTTTCCATGCCCTCTATCCGGAGTCACCTAGTGCAG", "binding signal": "12000 fluorescence intensity (a.u.)"}, {"sequence": "GAAATCCTCCCCTCTCGCTCTACATGTTTGACTTTGACTTCGGAGTCACCTAGTGCAG", "binding signal": "8100 fluorescence intensity (a.u.)"}, {"sequence": "TAATTTCATAACTCGCCTGGAAACCACGTGACAATCTTTTCGGAGTCACCTAGTGCAG", "binding signal": "8110 fluorescence intensity (a.u.)"}, {"sequence": "CATCAGCCGCTGACGTCAGCCGCCACCTCACATCGCTGACCGGAGTCACCTAGTGCAG", "binding signal": "10300 fluorescence intensity (a.u.)"}, {"sequence": "ACACTCTCCATCTCTTGTCACCTTGCTCTACTCTCCCCTTCGGAGTCACCTAGTGCAG", "binding signal": "10000 fluorescence intensity (a.u.)"}, {"sequence": "AGTTGATCATGAATGCATTCTTTGTGAGTTGATATTTATTCGGAGTCACCTAGTGCAG", "binding signal": "8160 fluorescence intensity (a.u.)"}, {"sequence": "AAGTCATCCGTATTTGAGTCGATTTTTAAGTCCGTTCGCTCGGAGTCACCTAGTGCAG", "binding signal": "8670 fluorescence intensity (a.u.)"}, {"sequence": "ATTTTTGGTAGTCTTGTTTCGTGATATTCGTGAAGAGGGGCGGAGTCACCTAGTGCAG", "binding signal": "10700 fluorescence intensity (a.u.)"}, {"sequence": "CCACGCTCTCTCGTCTGCCTGAACACGCTCGCCGGCGATGCGGAGTCACCTAGTGCAG", "binding signal": "9280 fluorescence intensity (a.u.)"}, {"sequence": "CTGCTATGAATTATCGGTTGCTTCCGGTGTTGGGCATTGACGGAGTCACCTAGTGCAG", "binding signal": "12400 fluorescence intensity (a.u.)"}, {"sequence": "ATTAGGGGTGTGTTTGAGGAGAAGGAGATTGGGGAGATTGCGGAGTCACCTAGTGCAG", "binding signal": "8190 fluorescence intensity (a.u.)"}, {"sequence": "GCTACATCCACACCAAATCCCAATCCGCTAAAATAATTTGCGGAGTCACCTAGTGCAG", "binding signal": "8050 fluorescence intensity (a.u.)"}, {"sequence": "GAGGAGGAGGAGGAGGAGGAGGAGGATGCGGGTGGTGGTGCGGAGTCACCTAGTGCAG", "binding signal": "10500 fluorescence intensity (a.u.)"}, {"sequence": "TTCGATTTGGGTTTTGGGATGTAGTAGTCGCCAGTATCATCGGAGTCACCTAGTGCAG", "binding signal": "12700 fluorescence intensity (a.u.)"}, {"sequence": "AACTCAGTCTCAGCTCACATGATGCATCATCAGCCATGGCCGGAGTCACCTAGTGCAG", "binding signal": "8200 fluorescence intensity (a.u.)"}, {"sequence": "CAACCACCGCTACTCTCCGCCGCTGAGCTCGCCATCGTGCCGGAGTCACCTAGTGCAG", "binding signal": "9010 fluorescence intensity (a.u.)"}]}]}
